Primary screen of a compound library

T. brucei: 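Whole-parasite assay of Trypanosoma brucei over 72 hours; the read-out is not stated. Tested at 30 µM. Direction is inferred from retests: higher values go with stronger inhibition. Values scatter widely below zero; nearly all retest evidence comes from the higher of the two concentrations used. Size under these conditions: about 64,000 compounds, about 940 of them at 50% or above in at least one test.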
Toxoplasma: 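Assay of Toxoplasma gondii numbers, read through their beta-galactosidase reporter with a colour substrate. Tested at 10 µM. The record gives no direction; the compounds picked for IC50 retests had high values, so higher reads as fewer parasites. Size under these conditions: about 67,000 compounds, about 260 of them at 50% or above in at least one test.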

Values are the deposited “Percent Effect”, in %. The controls that fix the scale are not given in the record; negative values are as filed. Compounds were drawn at random from those tested, without regard to their results.

CN1CCN(c2ncc3c(=O)n(-c4cccc(F)c4)c(=O)[nH]c3n2)CC1 read T. brucei: 11.72%; Toxoplasma: 4.173%.
CC(O)CN1CCN(C(=O)c2cnn(-c3ccccc3F)c2)CC1 (centres unmarked) read T. brucei: 17.11%; Toxoplasma: -3.084%.
O=C(O)C(F)(F)F.[H][C@@]12CCN(c3nnc(C)s3)C[C@@]1([H])O[C@@H](c1nc(C)no1)C2 read T. brucei: -95.88%; Toxoplasma: -5.141%.
Cc1nn(C)c2cnn(Cc3ccc(C(=O)NC4CC4)o3)c12 read T. brucei: -14.97%; Toxoplasma: 0.0672%.
[H][C@@]12CN(C(=O)N(C)C)C[C@@]1([H])N(CC(C)C)C(=O)CO2 read T. brucei: -32.53%; Toxoplasma: -5.102%.
COCCOCC(=O)N1CCC(c2ccccc2F)C1 (centres unmarked) read T. brucei: -33.54%; Toxoplasma: 13.16%.
N#Cc1ccccc1N1CCN(C(=O)NCCN2CCOCC2)CC1 read T. brucei: -28.02%; Toxoplasma: -5.022%.
COc1nc2c(cc1C(=O)NCc1noc(Cc3cccs3)n1)CCC2 read T. brucei: -58.44%; Toxoplasma: 22.09%.
O=C(NCC(O)c1cccc(F)c1)c1sccc1OC(F)F (centres unmarked) read T. brucei: -40.96%; Toxoplasma: 8.322%.
Cc1ccc2c(c1)CCCN2C(=O)c1cncc(Br)c1 read T. brucei: -3.92%; Toxoplasma: -12.64%.
O=C(N1CCCC1)N1CCc2onc(COc3cccnc3)c2C1.O=C(O)C(F)(F)F read T. brucei: -825.2%; Toxoplasma: -13.2%.
Cc1csc(N2CCCN(c3cc(C)nc(C)c3C#N)CC2)n1 read T. brucei: 34.03%; Toxoplasma: 5.568%.
Cc1cccc(C2CCCN(C(=O)CN3C(=O)CCNC3=O)C2)c1 (centres unmarked) read T. brucei: -32.04%; Toxoplasma: 2.812%.
Cc1oc2c(c1C(=O)N1CC[C@H](O)[C@]3(CCCO3)C1)CCCC2 read T. brucei: -29.26%; Toxoplasma: 6.732%.
c1ccc(C2CCCCN2Cc2nc(-c3cnccn3)no2)nc1 (centres unmarked) read T. brucei: 0.09296%; Toxoplasma: -7.679%.
Cn1cnc2cc(NC(=O)c3n[nH]c4c3CCC4)ccc21 read T. brucei: 6.906%; Toxoplasma: 21.77%.
Clc1ccc(CN2CCCCC2Cn2cncn2)c2ncccc12 (centres unmarked) read Toxoplasma: 8.276%.
Cc1cc(NCC(=O)N(C)C)c(C(N)=O)cc1F read T. brucei: -1.656%; Toxoplasma: 12.19%.
O=C1CC2(CCN(CCCF)CC2)CN1Cc1cc(F)cc(F)c1 read T. brucei: -27.93%; Toxoplasma: 12.51%.
O=C(O)C(F)(F)F.[H][C@@]12CCN(Cc3ccc4ccccc4n3)[C@]1([H])CC[C@@H](C(=O)NC(C)C)O2 read T. brucei: -47.43%; Toxoplasma: 1.968%.
[H][C@]12CN(C)C(=O)[C@@]1([H])CN(C(=O)C1CCOC1)C2 (some centres unmarked) read T. brucei: -78.4%; Toxoplasma: -2.817%.
Cc1nc2cc(C(=O)N(CCN(C)C)CCN(C)C)ccc2n1C read T. brucei: -10.88%; Toxoplasma: 8.144%.
c1cncc(Cc2nnc3n2CCN(CC2CCCNC2)CC3)c1 (centres unmarked) read T. brucei: 8.486%; Toxoplasma: 3.688%.
OC(CN1CCN(CC2CCCCC2)CC1)c1ccccc1 (centres unmarked) read T. brucei: -15.73%; Toxoplasma: -0.7299%.
CC(C)C(=O)N(C)CC(=O)Nc1ccc(Br)cn1 read T. brucei: -9.417%; Toxoplasma: -4.709%.
Cc1cc(C2CCCN(CCCS(=O)(=O)c3ccccc3)C2)n[nH]1 (centres unmarked) read T. brucei: -28.48%.
Cc1cc(NC(=O)N(C)CCN2CCN(c3ccccc3)CC2)on1 read T. brucei: -6.801%; Toxoplasma: -3.919%.
CCN(CC(O)c1ccc(C)cc1)C(=O)NC(C)C (centres unmarked) read T. brucei: -23.32%; Toxoplasma: 7.33%.
O=C(NCCC1CCN(CC(F)(F)F)CC1)C1CCCO1 (centres unmarked) read T. brucei: -1.272%; Toxoplasma: 0.6048%.
CC(C)OCCCNC(=O)C1CC(=O)N(c2n[nH]c3cccc(F)c23)C1 (centres unmarked) read T. brucei: -21.99%; Toxoplasma: 7.074%.
Cc1cc(C(=O)O)cc(S(=O)(=O)Nc2ccc3c(c2)OCO3)c1C read T. brucei: -10.63%; Toxoplasma: 0.5263%.
CC(=O)N1CCC(C(=O)N2CCCC(Cc3ccccn3)C2)CC1 (centres unmarked) read T. brucei: -19.22%; Toxoplasma: -15.54%.
COC[C@@H]1CCC[C@@]12CN(C(=O)N(C)C)CCO2 read T. brucei: 6.563%; Toxoplasma: -12.86%.
CC(C)(C)NS(=O)(=O)c1ccccc1CNCc1cccc(O)c1 read T. brucei: -34.04%; Toxoplasma: -2.256%.
Cc1ncsc1CNC(=O)N(CCCO)C1CCc2ccccc21 (centres unmarked) read T. brucei: -6.317%; Toxoplasma: 7.76%.
COc1ccccc1[C@@H]1CN(Cc2nccn2C)C[C@H]1C(=O)O read T. brucei: -8.532%; Toxoplasma: 10.38%.
Cc1cnn(CC2CN(CC(=O)Nc3sccc3C#N)CCO2)c1 (centres unmarked) read T. brucei: -15.11%; Toxoplasma: -8.892%.
[H][C@@]12CCN(c3cc(OC)ncn3)CC[C@@]1([H])N(CC1CC1)CCO2 read T. brucei: -48.73%; Toxoplasma: -15.49%.
CN(Cc1noc(C2CC2)n1)C1CCN(Cc2ncc[nH]2)C1 (centres unmarked) read Toxoplasma: 24.78%.
NC(=O)c1cccc(OCC(=O)N2CCCC(n3cccn3)C2)c1 (centres unmarked) read T. brucei: 3.891%; Toxoplasma: -0.9265%.
Cc1cnn(CC(C)NCCc2cccs2)c1 (centres unmarked) read T. brucei: -83.55%; Toxoplasma: -2.697%.
CC(C)(C)OC(=O)N1CCCc2ccc(NCc3cc[nH]c3)cc21 read T. brucei: 5.183%; Toxoplasma: 8.301%.
CCc1n[nH]c(C2CN(C(=O)CCCn3cccn3)CCO2)n1 (centres unmarked) read Toxoplasma: 16.13%.
Cc1nn(C)c(C)c1C1COCCN1C(=O)c1n[nH]c2ccccc12 (centres unmarked) read T. brucei: 16.66%; Toxoplasma: 1.588%.

The values are deposited in ChEMBL (CHEMBL3988442, “University of Dundee, Small-Polar-MMV Screening Library” (2021)).